PubChem BioAssay AID1224826, NIAID, 2016

Aim: 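Genes that change LPS-induced Tnf promoter activity in mouse macrophages when knocked down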 (primary screen)
Cells: RAW264.7 G9 macrophages from mouse bearing reporters for p65 (GFP) and the Tnf promoter (mCherry)
Reagent: siRNA pool against mouse genes, 100 nM
Timing: 16 h of LPS stimulation, after 2 days of siRNA transfection
Challenge: bacterial lipopolysaccharide (Salmonella minnesota R595), 10 ng/ml
Read-out: 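Nuclear mCherry signal of the Tnf promoter reporter measured by imaging after background removal, scaled to each plate median and turned into robust z-scores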
Scale: Tnf reporter robust z-score: higher = stronger Tnf promoter reporter signal after LPS
Rule for the call: 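Called active when robust z-score is at most -1.3, matching the median of the Tlr4 knock-down control, or over 3; control wells and wells with under 50 cells never active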
Calls: active = Tnf reporter clearly lowered or raised; inactive = no clear change in Tnf reporter
Shown is a random part of about 17,000 reagents tested. About 1,110 of them (6.6%) count as active. 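Active means lowered or raised reporter signal; replicate intensities are raw and not normalised per plate.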 The numbers tell different reagents against one gene apart. Further read-outs or replicates are left out here.

| target gene | reagent | Tnf reporter robust z-score | fewer than 50 cells in well | activity call |
| --- | --- | --- | --- | --- |
| St6galnac2 | 1 | 1.56 | enough cells in well | inactive |
| Vps28 | 1 | – | fewer than 50 cells per well; well left out of calls | inactive |
| Rab25 | 1 | 0.56 | enough cells in well | inactive |
| Commd5 | 1 | -0.24 | enough cells in well | inactive |
| Got1 | 1 | -1.71 | enough cells in well | active |
| Or5m13b | 1 | 0.79 | enough cells in well | inactive |
| Ubl4a | 1 | -0.22 | enough cells in well | inactive |
| Cldn11 | 1 | -0.37 | enough cells in well | inactive |
| Galnt17 | 1 | -0.7 | enough cells in well | inactive |
| Socs3 | 1 | 0.29 | enough cells in well | inactive |
| Nfs1 | 1 | -0.96 | enough cells in well | inactive |
| Or4k40 | 1 | 0.3 | enough cells in well | inactive |
| Incenp | 1 | – | fewer than 50 cells per well; well left out of calls | inactive |
| Mast4 | 1 | 0.06 | enough cells in well | inactive |
| Itpr3 | 1 | -1.26 | enough cells in well | inactive |
| Or4k48 | 1 | 0 | enough cells in well | inactive |
| Or5d39 | 1 | -0.14 | enough cells in well | inactive |
| Prc1 | 1 | 0.6 | enough cells in well | inactive |
| Adam23 | 1 | 0.09 | enough cells in well | inactive |
| Adam23 | 2 | -0.42 | enough cells in well | inactive |
| H4c14 | 1 | -0.61 | enough cells in well | inactive |
| Ndufa2 | 1 | 2.68 | enough cells in well | inactive |
| Prkx | 1 | -0.37 | enough cells in well | inactive |
| Samd4b | 1 | -0.33 | enough cells in well | inactive |
